Drawing on PMC12325586, this text covers binding for three substances.

Sequences of proteins named here, by UniProt entry; tags and fusion partners are left off.
UniProt Q16254: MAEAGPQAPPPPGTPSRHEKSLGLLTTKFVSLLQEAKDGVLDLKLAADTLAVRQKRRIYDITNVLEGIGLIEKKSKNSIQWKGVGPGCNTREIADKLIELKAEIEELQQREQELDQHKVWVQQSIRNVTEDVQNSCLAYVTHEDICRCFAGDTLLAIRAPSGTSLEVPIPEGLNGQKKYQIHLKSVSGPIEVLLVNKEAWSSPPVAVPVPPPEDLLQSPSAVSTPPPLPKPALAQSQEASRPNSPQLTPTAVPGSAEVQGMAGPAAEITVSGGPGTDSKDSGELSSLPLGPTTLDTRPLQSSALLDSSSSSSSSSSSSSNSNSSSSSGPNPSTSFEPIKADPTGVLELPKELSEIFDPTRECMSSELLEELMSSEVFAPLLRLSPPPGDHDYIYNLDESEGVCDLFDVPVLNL
UniProt Q09028: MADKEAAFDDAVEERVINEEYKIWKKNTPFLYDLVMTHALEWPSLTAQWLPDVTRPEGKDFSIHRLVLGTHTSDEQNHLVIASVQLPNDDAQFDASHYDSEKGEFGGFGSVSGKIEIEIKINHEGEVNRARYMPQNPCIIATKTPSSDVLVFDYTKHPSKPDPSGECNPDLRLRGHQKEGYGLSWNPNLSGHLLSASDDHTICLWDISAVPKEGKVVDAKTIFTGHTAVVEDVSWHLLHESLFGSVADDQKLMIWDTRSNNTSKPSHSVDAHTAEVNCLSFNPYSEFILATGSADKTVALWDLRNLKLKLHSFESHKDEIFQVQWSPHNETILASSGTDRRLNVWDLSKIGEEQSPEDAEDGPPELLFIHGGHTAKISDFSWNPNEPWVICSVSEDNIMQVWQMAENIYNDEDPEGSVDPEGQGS

The target of assay [1] is T1, OFD1 (Oral-Facial-Digital Syndrome 1 protein), endogenous (human (endogenous in SW1990, MIA PaCa-2, PATU8988T)) (UniProt O75665).
T1 sequence: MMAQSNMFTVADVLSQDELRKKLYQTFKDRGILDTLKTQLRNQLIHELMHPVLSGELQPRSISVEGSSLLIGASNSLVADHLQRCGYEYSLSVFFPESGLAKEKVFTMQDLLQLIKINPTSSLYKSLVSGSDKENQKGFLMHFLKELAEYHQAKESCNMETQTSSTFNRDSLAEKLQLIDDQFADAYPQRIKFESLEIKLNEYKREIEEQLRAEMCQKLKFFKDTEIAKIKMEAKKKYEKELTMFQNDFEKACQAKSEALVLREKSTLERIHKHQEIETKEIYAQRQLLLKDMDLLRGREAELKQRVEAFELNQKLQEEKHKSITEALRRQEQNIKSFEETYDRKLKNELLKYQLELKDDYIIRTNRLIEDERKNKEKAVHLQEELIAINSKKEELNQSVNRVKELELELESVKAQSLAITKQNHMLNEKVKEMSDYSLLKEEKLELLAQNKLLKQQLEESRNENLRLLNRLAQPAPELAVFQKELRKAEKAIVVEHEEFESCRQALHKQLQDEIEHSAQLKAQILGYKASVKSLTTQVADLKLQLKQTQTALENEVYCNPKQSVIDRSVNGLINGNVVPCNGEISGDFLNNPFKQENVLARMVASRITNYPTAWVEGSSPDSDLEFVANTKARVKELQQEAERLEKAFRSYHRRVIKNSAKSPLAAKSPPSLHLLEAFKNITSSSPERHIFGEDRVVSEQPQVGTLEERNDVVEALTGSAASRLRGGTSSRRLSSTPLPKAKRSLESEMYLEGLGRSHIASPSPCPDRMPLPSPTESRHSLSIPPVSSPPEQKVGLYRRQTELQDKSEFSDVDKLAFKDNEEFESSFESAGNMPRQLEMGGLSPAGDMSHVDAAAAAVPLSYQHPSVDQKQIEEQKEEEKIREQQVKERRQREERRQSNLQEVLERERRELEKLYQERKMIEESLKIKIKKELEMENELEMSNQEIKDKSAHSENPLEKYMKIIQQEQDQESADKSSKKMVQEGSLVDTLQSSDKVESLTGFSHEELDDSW
Kind of assay: co-IP; endogenous proteins, whole-cell lysates of SW1990, MIA PaCa-2 and PATU8988T cells; protein G magnetic beads with antibodies against OFD1 or E2F4, IgG as negative control; TAP lysis buffer washes.

The target of the next assay is T2, GFP-tagged OFD1 (UniProt O75665).
T2 sequence: T1 sequence
Description: proximity ligation; PANC1 cells expressing GFP-OFD1; primary antibodies against GFP and E2F4; E2F4 knockdown cells as specificity control.

Assay [2] has as its target E2F4, endogenous (human (endogenous in PANC1, MIA PaCa-2, SW1990, PATU8988T)) (UniProt Q16254). Description: co-IP; endogenous proteins, whole-cell lysates of PANC1-Tet-shOFD1 and MIA PaCa-2-Tet-shOFD1 cells, with or without OFD1 knockdown or palbociclib (0.5 μM for 48 h); protein G magnetic beads with antibody overnight, TAP lysis buffer washes.
The target of assay [3] is T3, OFD1, exogenous in HEK293T (mapping co-immunoprecipitation) (UniProt O75665).
T3 sequence: T1 sequence
Kind of assay: co-IP; HEK293T cells transfected with the indicated plasmids, 48 h; TAP lysis buffer; anti-Flag M2 affinity gel, 3 h at 4 °C, eluted with Flag peptide.

These are yes or no findings as the source states them, for the method shown. In cells and extracts the contact can be indirect. Some binding calls cover weakened binding; strength is not graded here. For some of these results: Where a sequence is shown, tags or fusion partners need not be part of it.

For the substance “E2F4, endogenous (from UniProt Q16254 1-413)”, the binding entry (in assay [1]; in the assay with GFP-tagged OFD1) was “binds” each time.

As for “RBBP4, endogenous (from UniProt Q09028 1-425)”, the binding entry in assay [2] is listed as “binds”. On to “E2F4, exogenous in HEK293T (mapping co-immunoprecipitation) (from UniProt Q16254 1-413)”, for which the binding result in assay [3] is reported as “binds”.
